The values that follow come from patent publication US20160185832A1.

By UniProt entry, the sequences of proteins in these tests, tags left out. Where a name states a change or a piece, a line headed by the entry shows the natural chain unless it says otherwise.
UniProt P81947: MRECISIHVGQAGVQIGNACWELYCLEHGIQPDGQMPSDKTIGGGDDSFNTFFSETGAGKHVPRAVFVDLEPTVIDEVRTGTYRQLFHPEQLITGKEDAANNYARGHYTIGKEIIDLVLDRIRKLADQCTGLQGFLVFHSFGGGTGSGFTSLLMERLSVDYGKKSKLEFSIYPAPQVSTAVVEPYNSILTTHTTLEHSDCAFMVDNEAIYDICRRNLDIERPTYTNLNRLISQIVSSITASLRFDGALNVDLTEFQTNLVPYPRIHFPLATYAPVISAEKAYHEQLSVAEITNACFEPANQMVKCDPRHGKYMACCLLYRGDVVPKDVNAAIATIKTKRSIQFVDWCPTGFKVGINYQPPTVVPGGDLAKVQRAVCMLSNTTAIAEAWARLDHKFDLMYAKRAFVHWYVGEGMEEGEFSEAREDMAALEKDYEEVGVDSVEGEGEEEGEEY
UniProt Q6B856: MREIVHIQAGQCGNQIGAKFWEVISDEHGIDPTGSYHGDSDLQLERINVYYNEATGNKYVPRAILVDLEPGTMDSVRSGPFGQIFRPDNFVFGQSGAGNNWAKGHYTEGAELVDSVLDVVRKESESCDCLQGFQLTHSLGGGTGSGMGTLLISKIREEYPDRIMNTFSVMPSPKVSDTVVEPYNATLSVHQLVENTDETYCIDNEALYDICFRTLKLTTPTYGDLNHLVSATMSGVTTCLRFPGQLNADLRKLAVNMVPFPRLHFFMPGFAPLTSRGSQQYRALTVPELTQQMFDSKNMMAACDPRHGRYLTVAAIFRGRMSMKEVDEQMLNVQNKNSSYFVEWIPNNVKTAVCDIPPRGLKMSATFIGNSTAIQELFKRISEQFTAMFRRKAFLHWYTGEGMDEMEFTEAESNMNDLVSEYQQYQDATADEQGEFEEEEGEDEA
UniProt O15078: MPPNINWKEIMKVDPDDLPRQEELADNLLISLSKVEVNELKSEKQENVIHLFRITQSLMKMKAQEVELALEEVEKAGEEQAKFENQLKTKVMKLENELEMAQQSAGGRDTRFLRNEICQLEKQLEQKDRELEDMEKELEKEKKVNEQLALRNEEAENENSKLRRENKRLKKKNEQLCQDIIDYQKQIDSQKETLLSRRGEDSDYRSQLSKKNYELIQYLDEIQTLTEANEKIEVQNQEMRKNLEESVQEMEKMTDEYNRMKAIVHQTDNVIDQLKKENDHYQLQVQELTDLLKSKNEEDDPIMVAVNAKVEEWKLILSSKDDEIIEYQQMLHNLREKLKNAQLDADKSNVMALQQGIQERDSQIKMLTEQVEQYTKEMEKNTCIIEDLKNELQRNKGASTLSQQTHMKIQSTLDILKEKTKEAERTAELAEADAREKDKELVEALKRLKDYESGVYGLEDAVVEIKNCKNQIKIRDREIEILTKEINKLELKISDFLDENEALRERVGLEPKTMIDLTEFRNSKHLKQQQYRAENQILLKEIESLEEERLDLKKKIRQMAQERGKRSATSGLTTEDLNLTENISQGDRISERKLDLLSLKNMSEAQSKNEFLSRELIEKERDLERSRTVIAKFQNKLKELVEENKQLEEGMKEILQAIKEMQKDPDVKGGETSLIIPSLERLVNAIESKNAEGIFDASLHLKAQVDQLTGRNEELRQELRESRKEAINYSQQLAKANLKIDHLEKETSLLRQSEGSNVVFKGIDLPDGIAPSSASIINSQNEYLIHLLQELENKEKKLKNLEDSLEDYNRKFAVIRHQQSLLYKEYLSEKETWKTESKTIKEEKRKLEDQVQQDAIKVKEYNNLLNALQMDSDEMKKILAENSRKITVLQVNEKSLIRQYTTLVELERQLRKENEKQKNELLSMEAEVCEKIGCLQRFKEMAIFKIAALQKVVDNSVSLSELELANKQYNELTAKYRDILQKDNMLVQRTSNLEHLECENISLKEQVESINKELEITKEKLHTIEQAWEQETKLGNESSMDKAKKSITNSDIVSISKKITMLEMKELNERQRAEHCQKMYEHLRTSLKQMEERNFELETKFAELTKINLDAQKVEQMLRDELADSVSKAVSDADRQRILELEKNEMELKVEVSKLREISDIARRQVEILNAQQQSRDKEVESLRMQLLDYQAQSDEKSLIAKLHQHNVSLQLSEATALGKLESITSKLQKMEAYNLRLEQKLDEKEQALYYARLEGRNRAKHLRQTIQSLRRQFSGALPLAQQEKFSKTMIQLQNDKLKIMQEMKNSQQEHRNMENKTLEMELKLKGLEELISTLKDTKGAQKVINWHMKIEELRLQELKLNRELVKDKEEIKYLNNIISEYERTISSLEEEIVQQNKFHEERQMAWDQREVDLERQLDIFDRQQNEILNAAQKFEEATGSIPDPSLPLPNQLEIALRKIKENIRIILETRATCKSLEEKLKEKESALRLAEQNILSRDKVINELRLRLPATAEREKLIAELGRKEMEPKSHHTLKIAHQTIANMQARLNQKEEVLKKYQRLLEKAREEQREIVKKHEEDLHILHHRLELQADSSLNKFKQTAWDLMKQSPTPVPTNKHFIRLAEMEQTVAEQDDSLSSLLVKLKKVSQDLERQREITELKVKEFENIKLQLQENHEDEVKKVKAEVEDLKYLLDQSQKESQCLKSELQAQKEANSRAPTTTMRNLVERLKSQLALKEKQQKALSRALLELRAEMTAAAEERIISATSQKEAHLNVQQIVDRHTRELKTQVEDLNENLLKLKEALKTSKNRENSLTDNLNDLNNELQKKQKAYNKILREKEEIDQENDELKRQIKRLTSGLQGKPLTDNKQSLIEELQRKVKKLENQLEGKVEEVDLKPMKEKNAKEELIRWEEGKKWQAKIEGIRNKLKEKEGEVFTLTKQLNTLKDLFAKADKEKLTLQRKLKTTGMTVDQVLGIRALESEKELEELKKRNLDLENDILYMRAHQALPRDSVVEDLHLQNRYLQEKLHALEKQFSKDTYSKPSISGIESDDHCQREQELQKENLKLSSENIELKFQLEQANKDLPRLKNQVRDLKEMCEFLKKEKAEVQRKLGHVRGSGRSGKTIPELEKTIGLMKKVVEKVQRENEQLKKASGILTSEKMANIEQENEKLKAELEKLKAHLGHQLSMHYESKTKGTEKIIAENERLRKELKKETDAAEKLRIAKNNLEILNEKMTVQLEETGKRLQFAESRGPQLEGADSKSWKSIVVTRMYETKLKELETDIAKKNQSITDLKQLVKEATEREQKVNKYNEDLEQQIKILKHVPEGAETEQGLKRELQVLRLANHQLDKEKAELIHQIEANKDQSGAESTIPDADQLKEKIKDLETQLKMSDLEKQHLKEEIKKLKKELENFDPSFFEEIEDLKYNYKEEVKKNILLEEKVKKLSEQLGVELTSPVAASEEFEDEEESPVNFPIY

Results are given in words; binding and its absence hold for the method and conditions named. Some results given as binding are weak or reduced against the parent protein; the word gives no strength.

The experiment has as its target pure, pre-polymerized, taxol-stabilized microtubules of bovine tubulin (Cytoskeleton) (bovine) (UniProt P81947+Q6B856). As to the kind of experiment: in vitro microtubule co-sedimentation of in vitro translated GFP fusions, western blot.

For “GFP fusion of CEP290 aa 1-1966 (from UniProt O15078 1-1966)”, the binding result was “binds”.
Then “GFP fusion of CEP290 aa 580-2479 (from UniProt O15078 580-2479)”, with “binds”; and “GFP fusion of full length human CEP290 (aa 1-2479) (from UniProt O15078 1-2479)”, with “binds”.
